Article PMC11097450
These are yes or no findings as the source states them, for the method shown. Binding seen in cells or lysates may run through a third protein. Binding can be weak; no strength is given. Each block holds one molecule with its values, some of them ahead of it.

Experiments:
[1] = target: T1, MARCKS (myristoylated alanine-rich c-kinase substrate) (human (endogenous in 293T and TNBC cells)) (UniProt P29966); assay: co-IP; TRIM1-269aa-Flag transfected into 293T and TNBC cells; IP with Flag, MARCKS or calmodulin antibodies, protein A/G beads, western blot; lysis buffer 1% Triton X-100, 50 mM Tris pH 7.5, 1 mM EDTA, 150 mM NaCl
T1 sequence: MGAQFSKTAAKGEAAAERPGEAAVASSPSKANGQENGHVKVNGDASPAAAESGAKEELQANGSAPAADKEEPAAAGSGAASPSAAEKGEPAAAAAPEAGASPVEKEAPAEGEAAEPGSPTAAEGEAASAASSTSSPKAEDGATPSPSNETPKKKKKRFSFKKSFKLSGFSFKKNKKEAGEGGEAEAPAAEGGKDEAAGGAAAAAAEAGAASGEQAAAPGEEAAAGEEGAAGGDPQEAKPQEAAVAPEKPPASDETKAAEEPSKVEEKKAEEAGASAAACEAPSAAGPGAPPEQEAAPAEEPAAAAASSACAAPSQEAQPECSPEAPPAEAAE

TRIM1-269aa-Flag (human) = assay: as above

binding [1]: binds
Molecule: TRIM1-269aa-Flag (human)

binding (TRIM1-269aa-Flag (human)): binds
B1: MARCKS (myristoylated alanine-rich c-kinase substrate) (protein, UniProt P29966 1-332)
chain: T1 sequence
